Measurements published in paper PMC6639060.

Sequences of proteins named here, by UniProt entry; tags and fusion partners are left off. A change or cut given only in a name is not applied to a line headed by its entry.
UniProt Q5TC63: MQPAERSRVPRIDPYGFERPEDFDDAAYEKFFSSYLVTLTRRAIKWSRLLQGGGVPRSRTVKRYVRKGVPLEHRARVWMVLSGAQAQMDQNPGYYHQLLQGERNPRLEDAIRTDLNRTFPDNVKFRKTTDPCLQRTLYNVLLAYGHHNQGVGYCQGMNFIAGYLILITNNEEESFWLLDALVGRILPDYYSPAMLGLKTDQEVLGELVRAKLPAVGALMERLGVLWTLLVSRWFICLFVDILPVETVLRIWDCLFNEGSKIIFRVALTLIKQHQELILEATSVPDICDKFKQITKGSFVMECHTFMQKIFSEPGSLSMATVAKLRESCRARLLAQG

How the values were obtained:
Experiment in all cases: pull-down; GST-Rab26 (wild type or mutant) fusion proteins (MagneGST pulldown system) incubated with total HEK293 cell lysates expressing TBC proteins or TBC1D6 domains; 500 μL binding buffer, 20 mM Tris-HCl pH 7.5, 140 m NaCl, 1% Nonidet P-40, 4 h at 4°C; bound proteins detected by immunoblotting; only the target purified
GST-Rab26 = target: T1, GST-Rab26 (UniProt Q9ULW5)
T1 sequence: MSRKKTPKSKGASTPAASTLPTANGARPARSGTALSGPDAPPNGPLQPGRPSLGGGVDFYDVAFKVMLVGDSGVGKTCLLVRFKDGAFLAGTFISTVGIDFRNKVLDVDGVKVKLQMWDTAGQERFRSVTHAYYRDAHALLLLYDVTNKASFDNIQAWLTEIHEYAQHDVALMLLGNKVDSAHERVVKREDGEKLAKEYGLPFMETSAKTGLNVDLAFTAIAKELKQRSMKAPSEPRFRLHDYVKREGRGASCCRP

GST-Rab26Q123L = target: T2, GST-Rab26Q123L (UniProt Q9ULW5)
T2 sequence: T1 sequence with Q123L

GST-Rab26T77N = target: T3, GST-Rab26T77N (UniProt Q9ULW5)
T3 sequence: T1 sequence with T77N

Measured: binding

TBC1D6 TBC domain (from UniProt Q5TC63) (domain or fragment)
binds: GST-Rab26 | GST-Rab26Q123L | GST-Rab26T77N

TBC1D6 C terminus (from UniProt Q5TC63) (domain or fragment)
binds: GST-Rab26 | GST-Rab26Q123L | GST-Rab26T77N

Where a chain is given by its changes, count along the chain named. No constants are given. Whether binding was seen depends on the method and setting. Binding seen in cells or lysates may run through a third protein. Binding calls can cover weak binding; strength is not graded here. Sequences can lack the tags named with a protein.
